# Hit rate of the full screen: of about 400,000 compounds, about 13,000 (3.2%) were called active. Inconclusive results, whose numbers are uncertain, are shown with a selection of clear calls. Calls follow the shape of the dose curve; as a rule, active = well fitted cell-killing curve with a large enough effect; inconclusive = small, poorly fitted or top-dose-only effect, or effect the other way; inactive = flat fitted curve, though single readings scatter. Where the call is inconclusive, the potency comes from a doubtful curve fit. Some compounds were tested as several samples or in several runs, with calls that do not always agree.
# Test: qHTS assay for MDR1-selective chemotherapeutics: Primary screen using the drug-selected MDR subline cells KB-V1; also: nearly all actives have a fitted effect of over 60% in size
# Settings: KB-V1 MDR cells viability, CellTiter-Glo, 72 h; activity change, negative = cytotoxicity: at 46.1 µM (top of the series)
# In short: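 Readout: CellTiter-Glo luminescence, 10 min after addition. Cells: KB-V1 MDR subline, 72 h at 37 degrees C with compound. Analysis: corrected, normalized data fitted to concentration-effect curves.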
# % is scaled to controls: 0 for no effect and ±100 for the full control effect; potency is read from the fitted curve at half-maximal effect.
SMILES,Potency,"activity change, negative = cytotoxicity"
O=C(Nc1ccc(N2CCOCC2)cc1)Nc1ccc(Cl)c(Cl)c1,active: 18.4 µM,–
CSc1nnc2c3c4c(sc3nc(-n3nc(C)cc3C)n12)COC(C)(C)C4,inactive,–
O=C(CSc1ccc(-c2ccccn2)nn1)NC1CCCC1,"inconclusive: 20.6 µM [cytotoxic, single point]",–
CNc1ccccc1NC(=O)CCn1c(=S)oc2ccccc21,"inconclusive: 18.4 µM [cytotoxic, partial curve, poor fit]",–
COc1ccccc1CNC(=O)CCn1cnc2ccccc2c1=O,"inconclusive: 29.1 µM [cytotoxic, single point]",–
CC1CCCCN1c1ncnc2ccccc12 (centres undefined),"inconclusive: 11.6 µM [cytotoxic, partial curve, poor fit]",–
CC(=O)N1CCOc2ccc(S(=O)(=O)NCCc3ccc(S(N)(=O)=O)cc3)cc21,"inconclusive: 29.1 µM [rising, single point]",–
COC(=O)c1ccc(C)c(NC(=O)CCc2ccc(OC)c(OC)c2)c1,"inconclusive: 10.3 µM [cytotoxic, partial curve, poor fit]",–
O=C(CSc1nc2cc(S(=O)(=O)N3CCOCC3)ccc2o1)Nc1c(F)cccc1F,"inconclusive: 29.1 µM [cytotoxic, single point]",–
Cc1cccc(Cn2nnc3c(=O)[nH]c(C4CCCN(C(=O)c5ccccc5Cl)C4)nc32)c1 (centres undefined),inactive,–
COc1ccc(/C=C/C(=O)Nc2cc(C)nn2-c2nc3ccccc3[nH]2)cc1,active: 16.4 µM,–
COc1cc(/C=C/C(=O)N2c3ccccc3Sc3ccc(C(F)(F)F)cc32)cc(OC)c1OC,"inconclusive: 5.8 µM [cytotoxic, partial curve]",–
O=c1cc(N2CCCCC2)c(-c2ccccc2)nn1Cc1c(Cl)cccc1Cl,"inconclusive: 16.4 µM [cytotoxic, single point]",–
CCOCCCN(C)C1CCN(S(=O)(=O)c2csc(C(N)=O)c2)CC1,"inconclusive: 29.1 µM [rising, single point]",–
CN(C)C(CNC(=O)c1ccccc1OCc1ccc(Cl)cc1)c1ccco1 (centres undefined),inactive,–
CCS(=O)(=O)N1CCN(c2ccc([N+](=O)[O-])c(NCC3CCCO3)c2)CC1 (centres undefined),"inconclusive: 29.1 µM [cytotoxic, single point]",–
O=C(CSCCO)Nc1nccs1,"inconclusive: 25.9 µM [rising, partial curve, poor fit]",–
CCCCn1c(=N)n(CCOc2ccc(C)cc2)c2ccccc21,"inconclusive: 23.1 µM [cytotoxic, single point]",–
Cc1c(C(=O)N/N=C/c2ccc(N(C)C)cc2)[nH]c2ccc(Cl)cc12,active: 5.8 µM,–
c1ccc(N2CCN(c3nc(-c4ccccn4)nc4ccccc34)CC2)cc1,"inconclusive: 2.06 µM [cytotoxic, full curve, poor fit]",–
Cc1ccc(S(=O)(=O)N(C)CC(=O)Nc2nc3ccccc3s2)cc1,inactive,–
NC(c1ccccc1)c1csc(NC(=O)Nc2ccc(OC(F)(F)F)cc2)n1 (centres undefined),inactive,–
Cc1ccc(Cn2cc(CN3CC(N4CCCCC4)CS3(=O)=O)nn2)cc1 (centres undefined),"inconclusive: 20.6 µM [cytotoxic, single point]",–

SMILES,Potency,"activity change, negative = cytotoxicity"
O=C(O)c1cnn2c(-c3ccccc3)ccnc12,"inconclusive: 18.4 µM [rising, single point]",–
Cc1ccc(-n2ncc3c(=O)n(Cc4cccnc4)cnc32)cc1,active: 11.6 µM,–
C#CCOCCOCCOCCNc1nc(N2CCN(C(=O)CCCCCCCCCCNC(=O)[C@H](CCCCN)n3cc(C)nn3)CC2)nc(N2CCN(C(=O)CCCCCCCCCCNC(=O)[C@@H]([C@H](C)O)n3cc(C)nn3)CC2)n1,"inconclusive: 23.1 µM [cytotoxic, single point]",–
CN1C[C@@H]2[C@@H]3C(=O)N(Cc4ccccc4)C(=O)[C@@H]3[C@](C)(C1=O)N2C(=O)c1ccc(Cl)cc1,"inconclusive: 29.1 µM [rising, single point]",–
COc1cccc(-c2cc(NC=O)c3ncc(-c4ccc(C(C)=O)cc4)n3c2)c1,active: 18.4 µM,–
CCC(=O)Nc1ccc(C(=O)n2ccc(C)n2)cc1,"inconclusive: 29.1 µM [rising, single point]",–
COCCCN=C1NN=C(c2cc(C)n(Cc3ccco3)c2C)CS1,"inconclusive: 1.16 µM [cytotoxic, full curve, poor fit]",–
Cc1cc(NC(=O)CN2C(=O)NC3(CCC(C)CC3)C2=O)no1 (centres undefined),"inconclusive: 29.1 µM [rising, single point]",–
N/C(=N\OC(=O)COc1ccc(Br)cc1Cl)c1cccnc1,"inconclusive: 29.1 µM [cytotoxic, single point]",–
N#CC(c1cccc(Cl)c1)c1ccc2c(C(F)(F)F)cc(C(F)(F)F)nc2n1 (centres undefined),active: 0.92 µM,–
COc1ccc(N2CCN(C(=O)CNS(=O)(=O)c3ccc(Br)s3)CC2)cc1,"inconclusive: 14.6 µM [cytotoxic, partial curve]",–
CCc1ccc(NC(=O)Cn2c(=O)n(-c3cc(OC)c(OC)c(OC)c3)c(=O)c3ccccc32)cc1,inactive,–
Cc1cc(C(=O)C(=O)Nc2nncs2)c(C)n1-c1ccc(Cl)cc1,inactive,–
CCN1CCN(C(=O)c2ccc(S(=O)(=O)Nc3ccccc3)cc2)CC1,"inconclusive: 29.1 µM [rising, single point]",–
CC1CCC(NC(=O)C(C)N2C(=O)C3CCCCC3C2=O)CC1 (centres undefined),"inconclusive: 18.4 µM [rising, single point]",–
O=C(CN1CCC(C(=O)O)CC1)Nc1ccccc1Oc1ccccc1,–,inconclusive: 12.6%
FC(F)(F)c1cc(-c2ccccc2)nc(N2CCOCC2)n1,inactive,–
O=c1[nH]n2c(=O)c3c([nH]c2c1N=Nc1cccc(Cl)c1)CCCC3,"inconclusive: 29.1 µM [cytotoxic, single point]",–
CCN(c1ccccc1)S(=O)(=O)c1ccc(Cl)c(NC(=O)CSc2ncn[nH]2)c1,active: 23.1 µM,–
COc1ccc(C(=O)CSc2nnc(-c3cc4ccccc4cc3O)n2Cc2ccco2)cc1,active: 7.31 µM,–
Cc1ccc(NC(=S)Nc2ccc(OC(F)F)c(Cl)c2)cc1Cl,active: 20.6 µM,–
O=C(Cn1cnc([N+](=O)[O-])c1)NCCc1ccccc1,"inconclusive: 0.651 µM [cytotoxic, full curve, poor fit]",–
CC(C)C(NS(=O)(=O)c1cccs1)C(=O)NCCCN1CCCCCC1 (centres undefined),inactive,–

SMILES,Potency,"activity change, negative = cytotoxicity"
N=C1C(c2nc3ccccc3s2)=C(O)CN1Cc1ccccc1,"inconclusive: 2.59 µM [cytotoxic, full curve, poor fit]",–
O=C1Nc2ccc(Br)cc2C12NNc1ccccc1O2 (centres undefined),inactive,–
Cc1cc(C)n2nc(C(=O)OCC(=O)NC3CCS(=O)(=O)C3)nc2n1 (centres undefined),"inconclusive: 29.1 µM [rising, single point]",–
CCOC(=O)C1=CCN(S(=O)(=O)c2ccc(C)cc2)C1c1cccc(F)c1 (centres undefined),"inconclusive: 20.6 µM [cytotoxic, partial curve, poor fit]",–
CN(C)/C=C1\SC(=S)N(N2C(=O)C3C4C=CC(C4)C3C2=O)C1=O (centres undefined),"inconclusive: 20.6 µM [cytotoxic, partial curve]",–
COc1ccc(N2CCN(C(=O)c3ccc4c(c3)OCO4)CC2)cc1,active: 20.6 µM,–
N#CC1=C(N)Oc2cc(N)ccc2C1C1CCCCC1 (centres undefined),"inconclusive: 2.06 µM [cytotoxic, partial curve, poor fit]",–
CCC(CC)c1nnc(NC(=O)c2cc(-c3ccccc3)nc3ccccc23)s1,"inconclusive: 16.4 µM [cytotoxic, single point]",–
CCOC(=O)C1(C)CCCN(C(=O)c2ccc(F)cc2Cl)C1 (centres undefined),inactive,–
O=C(OCCN1CCCCC1)c1cccc(F)c1,"inconclusive: 4.61 µM [rising, single point]",–
CCC1Sc2ccccc2N(CC(=O)NCc2ccc3c(c2)OCO3)C1=O (centres undefined),"inconclusive: 9.2 µM [cytotoxic, partial curve]",–
O=C(Cc1c(F)cccc1Cl)N1CCN(S(=O)(=O)c2cccc(F)c2)CC1,"inconclusive: 7.31 µM [cytotoxic, partial curve]",–
CCN(CC)S(=O)(=O)c1cc(C(=O)c2nccn2C)ccc1Cl,"inconclusive: 29.1 µM [cytotoxic, single point]",–
CC(C)(C)NC(=O)N1CCCN(c2ccc(C(F)(F)F)cn2)CC1,inactive,–
O=C(O)CCCC(=O)NNC(=O)c1cccc(Br)c1,"inconclusive: 0.461 µM [rising, full curve, poor fit]",–
COc1ccc(NC(=O)CSc2nnc(-c3ccccn3)n2N)cc1Cl,active: 16.4 µM,–
COC(=O)[C@@]12CCCCN1[C@H](c1ccc(-c3ccc(C(C)=O)cc3)cc1)[C@@H]1C(=O)N(C)C(=O)[C@@H]12,"inconclusive: 29.1 µM [cytotoxic, single point]",–
Cc1cc(C)c(NS(=O)(=O)c2ccc(-c3coc(C)n3)cc2)c(C)c1,inactive,–
Oc1ccc(-c2nc3ccc4ccccc4c3c3c2CCC3)cc1O,"inconclusive: 23.1 µM [cytotoxic, single point]",–
COc1ccc(C2CC(=O)c3c(O)cc(O)cc3O2)cc1O (centres undefined),inactive,–
O=C(NCc1ccc(Cl)cc1)C1CCN(S(=O)(=O)c2ccccc2)CC1,inactive,–
COc1ccc(N(C(=O)c2ccccc2)S(=O)(=O)c2ccc3c(c2)n(C)c(=O)n3C)cc1,inactive,–
OCCCCNCc1cc(Br)ccc1OCc1ccccc1F,"inconclusive: 10.3 µM [cytotoxic, partial curve, poor fit]",–

# 3 entries from above, with tabs:
SMILES	Potency	activity change, negative = cytotoxicity
Cc1cc(C(=O)C(=O)Nc2nncs2)c(C)n1-c1ccc(Cl)cc1	inactive	–
CCN1CCN(C(=O)c2ccc(S(=O)(=O)Nc3ccccc3)cc2)CC1	inconclusive: 29.1 µM [rising, single point]	–
CC1CCC(NC(=O)C(C)N2C(=O)C3CCCCC3C2=O)CC1 (centres undefined)	inconclusive: 18.4 µM [rising, single point]	–

# Source: PubChem BioAssay AID1347076 (National Center for Advancing Translational Sciences (NCATS), 2019)
